Test results reported in paper PMC5741267.
These are yes or no findings as the source states them, for the method shown. A result given as binding can be weak or reduced; the word gives no strength. Tags and fused reporters may be left off the sequences shown.

Assays:
[1] = target: T1, PUF repeats of FBF-1 (a.a. 121-614) fused to LexA DNA binding domain (C. elegans) (UniProt Q9N5M6); assay: two-hybrid; SYGL-1 or LST-1 fused to Gal4 AD, PUF repeats of FBF-1 or FBF-2 fused to LexA BD; L40-ura yeast; growth on SD -Leu -Trp -His with 50 mM 3-AT, 4 days at 30°C (HIS3 reporter)
T1 sequence: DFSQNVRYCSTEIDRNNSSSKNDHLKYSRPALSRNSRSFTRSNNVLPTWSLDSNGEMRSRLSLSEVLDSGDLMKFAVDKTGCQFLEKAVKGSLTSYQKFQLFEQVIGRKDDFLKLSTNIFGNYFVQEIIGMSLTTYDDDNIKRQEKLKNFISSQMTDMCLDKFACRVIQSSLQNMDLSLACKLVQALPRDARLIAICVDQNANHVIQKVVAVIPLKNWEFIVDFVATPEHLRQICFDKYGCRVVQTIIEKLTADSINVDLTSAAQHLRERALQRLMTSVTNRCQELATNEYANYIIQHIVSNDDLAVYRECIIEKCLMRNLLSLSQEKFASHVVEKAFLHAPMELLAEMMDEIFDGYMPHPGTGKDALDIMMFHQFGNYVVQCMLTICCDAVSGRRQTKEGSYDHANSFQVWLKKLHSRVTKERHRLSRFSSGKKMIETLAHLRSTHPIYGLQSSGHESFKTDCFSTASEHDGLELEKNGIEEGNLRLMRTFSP

[2] = target: T2, PUF repeats of FBF-2 (a.a. 121-632) fused to LexA DNA binding domain (C. elegans) (UniProt Q09312); assay: as above
T2 sequence: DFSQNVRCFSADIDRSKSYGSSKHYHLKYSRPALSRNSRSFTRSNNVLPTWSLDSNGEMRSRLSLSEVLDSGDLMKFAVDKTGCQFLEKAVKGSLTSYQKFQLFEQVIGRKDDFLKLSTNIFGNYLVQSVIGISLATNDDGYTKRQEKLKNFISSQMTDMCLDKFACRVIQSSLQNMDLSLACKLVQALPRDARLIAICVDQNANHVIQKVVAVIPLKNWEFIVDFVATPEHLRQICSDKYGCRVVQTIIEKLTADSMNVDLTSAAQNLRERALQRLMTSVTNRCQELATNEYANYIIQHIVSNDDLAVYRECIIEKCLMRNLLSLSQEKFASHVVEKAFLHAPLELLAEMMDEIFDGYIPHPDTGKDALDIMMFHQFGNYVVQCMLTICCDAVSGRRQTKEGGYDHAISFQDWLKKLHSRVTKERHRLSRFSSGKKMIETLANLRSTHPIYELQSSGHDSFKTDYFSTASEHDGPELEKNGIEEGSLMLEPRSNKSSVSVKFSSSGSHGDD

binding [1]: binds | binding [2]: binds
Substance: SYGL-1 full length (a.a. 1-206) fused to Gal4 activation domain (from UniProt O45868)
